Tested on: Hela cells
Experiment: Fluorescence imaging of Hela cells loaded with caged coumarin, UV uncaging
Format: cell-based
Details: 2 μM for 1 hour

AM ester of 6-chloro-7-(2-nitrophenyl)ethoxy-coumarin 3-carboxamide [Compound 3]
fluorescence intensity of loaded cells prior to uncaging: no difference in fluorescence intensity of loaded cells from control cells
cellular blue fluorescence after UV photolysis (UV 330-380 nm): sudden jump of cellular blue fluorescence
